Reference: article PMC4872741
No constants are given. Whether binding was seen depends on the method and setting. Binding seen in cells or lysates may run through a third protein. Some results given as binding are weak or reduced against the parent protein; the word gives no strength. Blank lines part the entries; values can stand above or below the molecule they belong to.

By UniProt entry, the sequences of proteins in these tests, tags left out.
UniProt Q16659: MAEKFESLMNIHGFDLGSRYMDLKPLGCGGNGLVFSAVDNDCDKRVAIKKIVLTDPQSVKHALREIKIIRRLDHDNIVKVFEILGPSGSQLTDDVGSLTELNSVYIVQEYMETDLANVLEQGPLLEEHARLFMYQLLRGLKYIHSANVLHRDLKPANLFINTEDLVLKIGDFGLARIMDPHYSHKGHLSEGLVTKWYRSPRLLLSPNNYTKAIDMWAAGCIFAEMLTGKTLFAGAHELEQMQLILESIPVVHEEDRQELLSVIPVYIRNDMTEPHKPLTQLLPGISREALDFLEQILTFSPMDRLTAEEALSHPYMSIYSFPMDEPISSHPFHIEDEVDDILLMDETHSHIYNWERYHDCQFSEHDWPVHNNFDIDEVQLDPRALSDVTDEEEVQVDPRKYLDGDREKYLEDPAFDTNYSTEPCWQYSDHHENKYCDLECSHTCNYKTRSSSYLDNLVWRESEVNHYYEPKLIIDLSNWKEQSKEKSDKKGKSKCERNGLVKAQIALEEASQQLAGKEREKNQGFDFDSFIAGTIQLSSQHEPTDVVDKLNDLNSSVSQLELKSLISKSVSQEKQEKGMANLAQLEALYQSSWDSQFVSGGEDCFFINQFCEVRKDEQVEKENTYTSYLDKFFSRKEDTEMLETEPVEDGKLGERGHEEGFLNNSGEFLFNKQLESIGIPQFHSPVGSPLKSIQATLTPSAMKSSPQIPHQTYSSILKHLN

Experiments:
[1] = target: T1, Tyrosyl DNA phosphodiesterase 2 (TDP2) (human (endogenous in H460)) (UniProt O95551); experiment: co-IP; 1 mg H460 total lysate (EBC buffer: 50 mM Tris pH 7.5, 150 mM NaCl, 0.5% NP-40); IP with 2 ug TDP2 antibody, ERK3 antibody or normal rabbit IgG, protein A/G agarose, 4°C; Western blotting
T1 sequence: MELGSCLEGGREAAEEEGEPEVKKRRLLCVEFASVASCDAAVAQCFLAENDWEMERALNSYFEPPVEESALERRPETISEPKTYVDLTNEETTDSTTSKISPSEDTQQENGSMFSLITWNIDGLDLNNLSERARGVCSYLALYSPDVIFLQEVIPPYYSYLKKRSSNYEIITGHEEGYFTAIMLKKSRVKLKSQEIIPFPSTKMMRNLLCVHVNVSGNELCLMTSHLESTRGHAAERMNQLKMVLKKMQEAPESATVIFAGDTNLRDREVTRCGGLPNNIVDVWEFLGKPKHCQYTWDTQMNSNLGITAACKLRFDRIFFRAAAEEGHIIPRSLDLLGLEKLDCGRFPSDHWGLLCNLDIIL

[2] = target: Extracellular signal-regulated kinase 3 (ERK3) (human (endogenous in H460)) (UniProt Q16659); experiment: as above

- binding [1]: binds
Molecule: Extracellular signal-regulated kinase 3 (ERK3) (from UniProt Q16659 1-721)

- binding [2]: binds
B1: Tyrosyl DNA phosphodiesterase 2 (TDP2) (protein, UniProt O95551 1-362)
chain: T1 sequence
